Screening data, single-dose tests

Chains of the proteins cited; added tags and fusions are not shown. Residues count along the entry.
UniProt A4I591, 1-473: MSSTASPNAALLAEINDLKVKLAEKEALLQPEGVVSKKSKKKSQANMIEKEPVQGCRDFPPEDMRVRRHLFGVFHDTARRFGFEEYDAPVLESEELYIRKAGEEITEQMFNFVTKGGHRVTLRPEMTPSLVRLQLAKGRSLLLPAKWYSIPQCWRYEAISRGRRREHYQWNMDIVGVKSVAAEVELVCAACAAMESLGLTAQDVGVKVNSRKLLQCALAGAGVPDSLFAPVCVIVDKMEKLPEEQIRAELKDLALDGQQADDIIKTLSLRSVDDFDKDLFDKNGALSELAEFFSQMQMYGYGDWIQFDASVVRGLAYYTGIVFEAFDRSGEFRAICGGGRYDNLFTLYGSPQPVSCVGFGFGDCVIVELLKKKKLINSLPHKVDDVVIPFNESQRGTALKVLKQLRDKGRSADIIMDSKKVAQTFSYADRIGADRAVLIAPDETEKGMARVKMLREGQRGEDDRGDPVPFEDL

Measurements from “University of Dundee, Small-Polar-MMV Screening Library” (2021), ChEMBL document CHEMBL3988442.

Results are given as percent effect.
The record does not define 0% and 100%; most values in the screen are far below 50% and negative numbers occur (in some assays of this library far below -100).
The compounds are a random part of those screened.

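Enzyme assay of histidyl-tRNA synthetase; the read-out is not stated. Target: Histidine-tRNA ligase, Leishmania infantum (UniProt A4I591). Concentration: 30 µM. The record gives no direction; compounds that gave an IC50 in retests scored well above the rest, so higher reads as stronger inhibition. The assay is labelled LdHisRS but filed under L. infantum. Size under these conditions: about 69,000 compounds, about 410 of them at 50% or above in at least one test.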

| compound | effect |
|---|---|
| `Cc1ccsc1CN(CCN(C)C)C(=O)c1ccccc1C#N` | 11.84% |
| `CCc1nc(NCC(=O)N2CCOCC2)c2c(n1)c(C)nn2CC` | 15.53% |
| `COc1ccc(C(=O)NCCCNc2ccc(C(F)(F)F)cn2)cc1` | 12.84% |
| `CCN(c1ccccc1C(=O)O)S(=O)(=O)c1cccc2cccnc12` | -2.941% |
| `CCC(CO)N(Cc1cccnc1)C(=O)c1ccc(C)[nH]c1=O` (configuration not stated) | 25.3% |
| `Cc1nc(CN2CCC(c3nc4ccccc4n3C)CC2)co1` | 15.38% |
| `Cc1nc(-c2ccsc2)ccc1C(=O)NCC(C)N1CCOCC1` (configuration not stated) | 16.07% |
| `CS(=O)(=O)CCOc1nc(-c2ccccc2Cl)no1` | 12.35% |
| `COc1ccc(CN2CCC3(CC(=O)N(c4cccc(F)c4)C3)C2)cc1` (configuration not stated) | 25% |
| `O=C1O[C@@H]2CN(C3CCOCC3)C[C@@H]2N1CCCc1ccc(F)cc1` | 1.613% |
| `Cc1nn(C)c(C)c1C1CCCN1Cc1nc2ccccc2n1C` (configuration not stated) | 10.26% |
| `CCCc1ncc(CN(C)C2CCCN(CCc3ccccc3)C2)cn1` (configuration not stated) | 10.4% |
| `CCc1ccc2c(C3CN(S(C)(=O)=O)C3)ncn2c1` | 12.61% |
| `NC(=O)CN1CCN(C(=O)c2cc(Cl)cc3cccnc23)CC1` | 13.89% |
| `Cc1csc(NC(=O)c2cccnc2N2CCOCC2)n1` | 6.4% |
| `Cn1c(=O)n(C)c2cc(NS(=O)(=O)Cc3ccccc3)ccc21` | 13.04% |
| `COc1ccc(OC)c(Sc2ncccc2C(=O)NCC2CC2)c1` | 9.901% |
| `Cc1nccc(-c2cccc(NCC(=O)N3CCCCCCC3)c2)n1` | -19.7% |
| `CCN1CCC(CNCc2cc(C)ccc2OC)C1` (configuration not stated) | 11.61% |
| `CCN(c1ccc(C(=O)N2CCCC(C)C2)cc1)S(=O)(=O)CC` (configuration not stated) | 0.9615% |
| `O=C(COCCOc1ccccc1)N1CCCC(n2ccnc2)C1` (configuration not stated) | 5.128% |
| `Cc1cc(CC(=O)N2CCN(CC(C)C)[C@@H]3CS(=O)(=O)C[C@@H]32)ccc1F` | 9.091% |
| `CN(CC(=O)N1CCC(C(O)c2ccccc2)CC1)c1cnccn1` (configuration not stated) | 18.46% |
| `CCc1nccc(CN2CCC(CNC(=O)Nc3ccccc3)C2)n1` (configuration not stated) | 5.6% |
| `COC1(CNC(=O)NCCc2ccccc2)CCSC1` (configuration not stated) | 12.82% |
| `Cc1ccc(CN2CCc3onc(C(=O)NCCN(C)C)c3C2)o1` | 5.769% |
| `CCN(CC)C(=O)Nc1ccc(C(=O)N(C)C)c(C)c1` | 8.571% |
| `Fc1cccc(C2(CNC3CCOC4(CCOCC4)C3)CCOCC2)c1` (configuration not stated) | 12.64% |
| `Cc1cc(C)nc(N2CCCC(c3cccc(-n4ccnc4)n3)C2)n1` (configuration not stated) | 13.04% |
| `O=C(NCCN1CCOCC1)C1=NOC2(CCN(Cc3nccs3)C2)C1` (configuration not stated) | 12.73% |
| `CC(Cc1cccc(F)c1)NCc1cnc(N2CCN(C)CC2)nc1` (configuration not stated) | -5.181% |
| `Cc1cc(CN(C)C(C(=O)O)c2ccc(C(C)(C)C)cc2)on1` (configuration not stated) | 12.39% |
| `Cc1noc(C)c1CNS(=O)(=O)N(C)Cc1ccc(Cl)cc1` | 8.219% |
| `Cc1cc(CNCC2(O)CCCN(CCCc3ccccc3)C2=O)n[nH]1` (configuration not stated) | 6.557% |
| `CCOCCN1CCN(CCC(=O)N2CCCCC2)CC1` | 1.653% |
| `Cc1cc(=O)n2c(n1)SCC2CC(=O)NCc1cc(-c2ccco2)on1` (configuration not stated) | 11.86% |
| `Cc1nc(C#N)c(N2CCC(c3nc(-c4ccc(F)cc4)no3)CC2)o1` | -3.39% |
| `CC1(C(=O)NC2CCCC2)CCCN(c2ncccn2)C1` (configuration not stated) | 6.207% |
| `CCc1nc(C)c(-c2nccn2CC2CC(=O)N(CC)C2)[nH]1` (configuration not stated) | 6.557% |
| `Cn1nnc2c1C(COCc1ccccn1)CN(Cc1ccoc1)C2` (configuration not stated) | 18.18% |
| `Cc1nccn1Cc1nnc(C2CCCN(c3ncccn3)C2)n1C` (configuration not stated) | -2.597% |
| `Cc1nc(C)c(C(=O)N2Cc3ccccc3OCC2CN(C)C)o1` (configuration not stated) | 8.571% |
| `OC(CN(Cc1ccccc1)Cc1cccnc1)c1cccs1` (configuration not stated) | 6.061% |
| `Cc1csc(N2CCN(CC(=O)NC3CCOCC3)CC2C)n1` (configuration not stated) | 14.68% |
| `CCN1CCN(S(=O)(=O)N2CCc3ccccc3C2)[C@H]2CS(=O)(=O)C[C@H]21` | 15.83% |
| `Cc1nc(-c2noc3ccc(C(=O)NCCN(C)C)cc23)co1` | 7.563% |
| `O=C(Cc1ccccc1)N1CCN(CC(O)c2ccc(F)cc2)CC1` (configuration not stated) | 20% |
| `O=C(c1ccon1)N1CCCCC1c1nc2cc(F)ccc2[nH]1` (configuration not stated) | 11.11% |
| `COCC(=O)N1CCC2(CC1)CN(c1ccsc1)C(=O)CO2` | 16% |
| `CC(C)c1nnc(CN2CCCC(Cn3cncn3)C2)o1` (configuration not stated) | 17.59% |
| `CCNc1cc2c(nn1)CCN(C(=O)c1cccc3c1OCO3)C2` | 15.38% |
| `Cc1ccc(C(=O)Nc2cc(C(N)=O)ccc2N2CCCCC2)cc1F` | 22.58% |
| `CCCc1cncnc1N1CCC2(CCC(=O)N(CCOC)C2)CC1` | 6.557% |
| `CC(c1nccs1)n1cc(-c2cc(CN3CCCCC3)cs2)nn1` (configuration not stated) | 36% |
| `CC(=O)NCCCc1ncnn1-c1cccc(Cl)c1` | 5.714% |
| `CCCc1cnc(C)nc1N1CCC(Cn2cc(CN(C)C)nn2)CC1` | 13.11% |
| `Cc1ccc(CNC(C)c2ccc3[nH]c(=O)[nH]c3c2)s1` (configuration not stated) | 35.71% |
| `Cc1ccc(-c2ccc(Cl)nn2)cc1S(N)(=O)=O` | -2.41% |
| `CCn1nc2c(cc1=O)CN(CCCOc1ccc(C#N)cc1)CC2` | -4.762% |
| `O=C(Nc1cnccn1)[C@@H]1CC[C@@H]2[C@@H](CCN2Cc2nccs2)O1` | 9.574% |
| `CCc1nc(CC(=O)N2CCn3c(CC)nnc3C2)cs1` | 9.174% |
| `CCn1nc(C)c(CCNC(=O)c2cccc(-n3cccn3)c2)c1C` | 10.53% |
| `O=C(O)c1ccccc1-c1cnc(CNC(=O)C2CCOCC2)nc1` | 7.246% |
| `Cc1ccn2cc(C(=O)N3CCCC(Cn4cc(CO)nn4)C3)nc2c1` (configuration not stated) | 8.065% |
| `Fc1ccc(CN2CCCC2c2cncc(-n3ccnc3)n2)cc1` (configuration not stated) | 8.571% |
| `CCCN1Cc2ccccc2NC(=O)C12CCNC2` (configuration not stated) | 17.93% |
| `O=C(CCc1cccnc1)N1CCC(c2cnccn2)CC1` | -5.263% |

The last 5 entries again:

| compound | effect |
|---|---|
| `O=C(O)c1ccccc1-c1cnc(CNC(=O)C2CCOCC2)nc1` | 7.246% |
| `Cc1ccn2cc(C(=O)N3CCCC(Cn4cc(CO)nn4)C3)nc2c1` (configuration not stated) | 8.065% |
| `Fc1ccc(CN2CCCC2c2cncc(-n3ccnc3)n2)cc1` (configuration not stated) | 8.571% |
| `CCCN1Cc2ccccc2NC(=O)C12CCNC2` (configuration not stated) | 17.93% |
| `O=C(CCc1cccnc1)N1CCC(c2cnccn2)CC1` | -5.263% |